Reference: US20090220511A1

The chains behind the UniProt entries cited, without tags or fusion partners. Where a name states a change or a piece, a line headed by the entry shows the natural chain unless it says otherwise.
UniProt P15260: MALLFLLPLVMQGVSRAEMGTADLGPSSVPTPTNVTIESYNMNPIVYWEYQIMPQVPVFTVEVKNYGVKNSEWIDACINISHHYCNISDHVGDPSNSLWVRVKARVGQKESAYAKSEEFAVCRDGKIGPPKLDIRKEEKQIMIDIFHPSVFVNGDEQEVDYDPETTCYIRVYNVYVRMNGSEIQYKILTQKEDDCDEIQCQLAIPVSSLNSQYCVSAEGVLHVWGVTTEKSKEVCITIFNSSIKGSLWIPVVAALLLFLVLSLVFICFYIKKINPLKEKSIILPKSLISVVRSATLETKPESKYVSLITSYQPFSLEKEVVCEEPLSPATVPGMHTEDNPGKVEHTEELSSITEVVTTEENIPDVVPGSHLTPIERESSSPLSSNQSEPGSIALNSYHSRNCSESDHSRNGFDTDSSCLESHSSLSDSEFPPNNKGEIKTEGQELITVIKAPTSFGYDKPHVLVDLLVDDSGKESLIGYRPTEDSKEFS

Tests used:
[1] = biological target: T1, chimeric human CRF2-12/γR1 chain and intact human CRF2-4 (IL-10R2) chain expressed together on hamster 16-9 cells (human) (UniProt P15260); assay: crosslinking of 32P-labeled ligand to transfected hamster cells, 7.5% SDS-PAGE
T1 sequence 1: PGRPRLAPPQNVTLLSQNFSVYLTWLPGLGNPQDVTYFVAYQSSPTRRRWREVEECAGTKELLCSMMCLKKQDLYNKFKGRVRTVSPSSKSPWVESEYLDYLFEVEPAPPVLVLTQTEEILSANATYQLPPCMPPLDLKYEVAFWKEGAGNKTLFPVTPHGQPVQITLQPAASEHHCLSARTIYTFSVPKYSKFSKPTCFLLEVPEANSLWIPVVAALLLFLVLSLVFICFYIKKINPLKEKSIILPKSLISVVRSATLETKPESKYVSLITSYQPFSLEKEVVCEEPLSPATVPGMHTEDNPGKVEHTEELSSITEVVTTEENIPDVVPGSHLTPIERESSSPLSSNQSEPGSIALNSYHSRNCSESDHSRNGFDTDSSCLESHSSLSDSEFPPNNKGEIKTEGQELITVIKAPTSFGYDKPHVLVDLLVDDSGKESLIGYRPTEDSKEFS
T1 sequence 2: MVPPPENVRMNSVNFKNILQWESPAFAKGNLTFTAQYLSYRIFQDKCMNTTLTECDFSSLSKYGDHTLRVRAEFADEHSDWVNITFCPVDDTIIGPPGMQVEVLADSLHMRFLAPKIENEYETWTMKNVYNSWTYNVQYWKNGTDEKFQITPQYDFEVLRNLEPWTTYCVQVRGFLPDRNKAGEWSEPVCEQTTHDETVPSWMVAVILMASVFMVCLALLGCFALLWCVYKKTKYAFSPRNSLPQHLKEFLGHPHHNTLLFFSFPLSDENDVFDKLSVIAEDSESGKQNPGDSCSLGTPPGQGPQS

[2] = biological target: T1, chimeric human CRF2-12/γR1 chain and intact human CRF2-4 (IL-10R2) chain expressed together on hamster 16-9 cells (human); assay: flow cytometry with anti-FLAG antibody on transfected hamster cells

| binding [1] | binding [2] | Substance |
| --- | --- | --- |
| binds | – | 32P-labeled FL-IFN-λ1-P (ligand) |
| – | binds | FL-IFN-λ2 (IFN-λ2 tagged at its N-terminus with the FLAG epitope) (ligand) |
| – | binds | FL-IFN-λ1 (IFN-λ1 tagged at its N-terminus with the FLAG epitope) (ligand) |

These are yes or no findings as the source states them, for the method shown. A result given as binding can be weak or reduced; the word gives no strength.
